Measurements reported in PubChem BioAssay AID1259254 (NCATS, 2017)

Aim: 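Genome-wide screen for genes that prevent DNA re-replication in cancer cells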 (primary screen)
Cells: human HCT116 colorectal cancer cells
Reagent: single siRNA against human genes
Duration: 3 days
Read-out: 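Nuclei stained with Hoechst and imaged; cell-cycle phase assigned by DNA content; G2 share scaled per plate, non-targeting siRNA 0%, GMNN siRNA 100%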
Scale: G2 robust z-score and G2 cells, % of GMNN control: higher = more G2 cells, more excess DNA replication; raw share of cells in G2: higher = larger share of cells with G2 DNA content
Rule for the call: 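Active siRNAs have a G2 robust z of 5 or more median absolute deviations over the median, which in these data means about 38% or higher of GMNN control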
Here is an unselected part of about 59,000 reagents tested. About 1,550 of them (2.6%) were called active. 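G2 share is only a proxy for re-replication; each gene was hit by three separate siRNAs, and active genes were retested.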 The raw values are shown without normalisation. A number with no mark means an inactive call. The numbers tell different reagents against one gene apart. The record does not give: the amount of reagent.

gene	reagent no.	G2 robust z-score	G2 cells, % of GMNN control	raw share of cells in G2 (%)
SOX6	1	-0.0307	2.75	5.48
SOX6	2	-0.232	1.33	7.01
SOX6	3	1.9	16.4	10.3
TIGD2	1	0.21	4.44	6.33
TIGD2	2	0.718	8.02	9.78
TIGD2	3	1.16	11.1	9.36
SPDYA	1	-1.07	-4.58	3.77
SPDYA	2	3.62	28.4	15.1
SPDYA	3	-0.34	0.578	4.94
PIGU	1	-1.13	-4.96	2.3
PIGU	2	-0.142	1.97	3.73
PIGU	3	-0.221	1.42	3.09
EXOSC7	1	0.663	7.63	9.43
EXOSC7	2	-1.05	-4.43	2.35
EXOSC7	3	-0.249	1.21	4.56
MALRD1	1	-1.24	-5.77	2.01
MALRD1	2	-0.661	-1.68	2.52
MALRD1	3	0.206	4.41	5.97
MALRD1	4	1.54	13.8	9.21
MALRD1	5	-0.275	1.03	3.65
MALRD1	6	0.925	9.48	6.8
TICAM1	1	-0.827	-2.85	2.87
TICAM1	2	-0.453	-0.221	2.84
TICAM1	3	0.323	5.24	4.89
RFFL	1	-0.47	-0.342	4.82
RFFL	2	5.49 (active)	41.6	25
RFFL	3	-0.737	-2.22	3.64
LYPD6B	1	-0.701	-1.96	3.43
LYPD6B	2	-1.01	-4.16	1.78
LYPD6B	3	-0.223	1.4	3.09

Look-ups from the list:
Value of TIGD2 #2 under “G2 cells, % of GMNN control”: 8.02
MALRD1 #2, raw share of cells in G2 (%) = 2.52
